Experimental data taken from the supplement of paper PMC10849652.
Some of the results follow.

Protein sequences, listed by entry. Tags and fused reporters are not part of them. Lines headed by an entry give the natural chain unless they say otherwise; changes in a name come on top.
UniProt Q6PJG6: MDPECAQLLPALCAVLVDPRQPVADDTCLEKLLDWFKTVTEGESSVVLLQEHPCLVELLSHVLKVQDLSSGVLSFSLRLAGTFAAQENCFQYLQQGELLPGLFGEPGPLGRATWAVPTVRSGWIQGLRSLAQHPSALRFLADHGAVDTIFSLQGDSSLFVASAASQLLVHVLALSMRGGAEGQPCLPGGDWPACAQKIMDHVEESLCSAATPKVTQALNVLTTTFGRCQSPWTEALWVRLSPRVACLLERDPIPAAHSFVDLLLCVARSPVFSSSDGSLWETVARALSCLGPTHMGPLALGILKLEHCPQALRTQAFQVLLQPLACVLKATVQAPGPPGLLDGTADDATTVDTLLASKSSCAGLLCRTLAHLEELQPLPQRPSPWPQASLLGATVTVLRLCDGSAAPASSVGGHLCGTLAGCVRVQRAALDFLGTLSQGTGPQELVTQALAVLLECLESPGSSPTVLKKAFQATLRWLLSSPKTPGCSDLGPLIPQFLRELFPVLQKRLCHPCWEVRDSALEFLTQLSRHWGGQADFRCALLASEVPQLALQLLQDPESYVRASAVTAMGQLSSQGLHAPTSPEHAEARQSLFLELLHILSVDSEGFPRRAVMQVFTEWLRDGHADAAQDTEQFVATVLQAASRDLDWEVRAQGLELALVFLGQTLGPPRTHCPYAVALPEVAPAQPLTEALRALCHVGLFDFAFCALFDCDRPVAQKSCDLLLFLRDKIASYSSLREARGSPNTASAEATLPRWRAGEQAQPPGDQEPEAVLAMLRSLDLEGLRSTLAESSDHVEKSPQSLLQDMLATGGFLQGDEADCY
UniProt Q9NUP1: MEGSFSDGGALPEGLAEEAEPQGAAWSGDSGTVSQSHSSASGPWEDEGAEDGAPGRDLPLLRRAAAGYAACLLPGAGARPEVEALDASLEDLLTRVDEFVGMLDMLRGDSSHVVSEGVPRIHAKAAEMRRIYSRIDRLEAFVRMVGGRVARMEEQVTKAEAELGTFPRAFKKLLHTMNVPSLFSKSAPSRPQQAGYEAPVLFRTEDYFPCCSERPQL
UniProt Q99700, whole entry, looked up: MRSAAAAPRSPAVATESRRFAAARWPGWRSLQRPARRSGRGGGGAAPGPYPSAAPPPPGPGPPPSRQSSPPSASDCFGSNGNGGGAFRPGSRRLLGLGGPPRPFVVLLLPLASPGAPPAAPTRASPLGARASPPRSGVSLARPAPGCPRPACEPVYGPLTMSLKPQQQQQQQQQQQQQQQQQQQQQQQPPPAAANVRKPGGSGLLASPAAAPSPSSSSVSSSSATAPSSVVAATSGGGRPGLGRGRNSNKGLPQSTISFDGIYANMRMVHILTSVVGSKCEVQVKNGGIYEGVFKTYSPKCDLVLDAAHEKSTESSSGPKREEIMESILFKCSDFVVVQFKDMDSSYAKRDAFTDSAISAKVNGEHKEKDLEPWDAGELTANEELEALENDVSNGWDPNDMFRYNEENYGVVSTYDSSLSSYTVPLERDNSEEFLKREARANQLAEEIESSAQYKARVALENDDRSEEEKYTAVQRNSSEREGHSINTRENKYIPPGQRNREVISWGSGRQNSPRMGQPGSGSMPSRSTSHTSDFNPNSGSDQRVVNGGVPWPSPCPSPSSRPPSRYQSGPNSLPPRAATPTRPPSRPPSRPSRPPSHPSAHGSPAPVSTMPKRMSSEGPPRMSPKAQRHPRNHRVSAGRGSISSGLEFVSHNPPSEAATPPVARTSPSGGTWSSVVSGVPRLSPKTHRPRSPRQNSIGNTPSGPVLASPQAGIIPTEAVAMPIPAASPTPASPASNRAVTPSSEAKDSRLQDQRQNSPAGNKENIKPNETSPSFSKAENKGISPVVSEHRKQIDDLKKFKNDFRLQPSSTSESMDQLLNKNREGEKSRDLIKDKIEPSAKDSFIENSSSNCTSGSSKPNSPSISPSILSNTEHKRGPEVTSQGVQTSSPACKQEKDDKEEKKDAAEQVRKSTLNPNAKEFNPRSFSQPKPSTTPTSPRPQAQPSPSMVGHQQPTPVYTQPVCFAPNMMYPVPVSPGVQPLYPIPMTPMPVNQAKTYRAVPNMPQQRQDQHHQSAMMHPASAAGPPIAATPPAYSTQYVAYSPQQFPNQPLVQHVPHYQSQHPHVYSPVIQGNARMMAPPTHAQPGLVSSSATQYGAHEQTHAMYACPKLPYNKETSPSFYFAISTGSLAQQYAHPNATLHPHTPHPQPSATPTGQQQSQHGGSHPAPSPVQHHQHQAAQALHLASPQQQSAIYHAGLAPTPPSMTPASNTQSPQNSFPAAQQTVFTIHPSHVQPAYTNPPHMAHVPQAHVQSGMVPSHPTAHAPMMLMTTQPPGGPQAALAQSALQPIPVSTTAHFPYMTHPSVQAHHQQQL
UniProt Q07817, whole entry, looked up: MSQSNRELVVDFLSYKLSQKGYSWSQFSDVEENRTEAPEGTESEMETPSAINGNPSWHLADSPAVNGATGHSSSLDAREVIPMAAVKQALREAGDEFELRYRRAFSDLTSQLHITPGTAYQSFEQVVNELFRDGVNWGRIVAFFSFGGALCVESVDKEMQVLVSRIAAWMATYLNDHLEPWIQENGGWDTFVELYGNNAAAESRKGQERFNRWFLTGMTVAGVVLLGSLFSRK
UniProt Q8WXE1: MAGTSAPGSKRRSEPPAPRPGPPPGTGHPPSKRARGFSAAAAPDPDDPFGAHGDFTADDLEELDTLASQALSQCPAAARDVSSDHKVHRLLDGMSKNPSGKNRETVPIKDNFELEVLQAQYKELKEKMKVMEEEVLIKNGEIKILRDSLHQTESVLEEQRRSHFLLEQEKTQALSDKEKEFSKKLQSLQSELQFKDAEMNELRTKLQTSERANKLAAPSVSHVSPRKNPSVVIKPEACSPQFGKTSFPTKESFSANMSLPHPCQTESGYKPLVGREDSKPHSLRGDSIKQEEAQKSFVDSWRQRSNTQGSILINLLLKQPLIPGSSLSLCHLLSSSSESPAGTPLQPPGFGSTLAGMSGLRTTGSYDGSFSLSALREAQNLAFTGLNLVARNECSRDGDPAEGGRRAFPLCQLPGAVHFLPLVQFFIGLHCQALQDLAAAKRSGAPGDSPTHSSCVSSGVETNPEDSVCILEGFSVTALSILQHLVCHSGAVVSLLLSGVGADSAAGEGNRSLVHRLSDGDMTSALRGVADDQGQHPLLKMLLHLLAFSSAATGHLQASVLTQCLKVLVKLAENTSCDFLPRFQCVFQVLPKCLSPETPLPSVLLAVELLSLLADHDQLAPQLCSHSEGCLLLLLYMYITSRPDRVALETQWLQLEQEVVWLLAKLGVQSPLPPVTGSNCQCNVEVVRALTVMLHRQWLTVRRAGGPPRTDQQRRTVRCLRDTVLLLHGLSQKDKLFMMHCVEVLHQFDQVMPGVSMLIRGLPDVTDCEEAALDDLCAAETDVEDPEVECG
UniProt P53004: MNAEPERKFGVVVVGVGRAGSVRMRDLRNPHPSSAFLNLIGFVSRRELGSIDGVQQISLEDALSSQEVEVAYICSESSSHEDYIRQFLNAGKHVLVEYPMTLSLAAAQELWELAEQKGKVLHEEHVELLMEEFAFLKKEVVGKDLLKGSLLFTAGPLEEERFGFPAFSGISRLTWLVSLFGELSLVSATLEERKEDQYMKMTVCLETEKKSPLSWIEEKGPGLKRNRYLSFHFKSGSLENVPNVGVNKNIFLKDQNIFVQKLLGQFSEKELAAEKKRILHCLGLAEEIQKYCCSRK
UniProt Q8TD16, whole entry, looked up: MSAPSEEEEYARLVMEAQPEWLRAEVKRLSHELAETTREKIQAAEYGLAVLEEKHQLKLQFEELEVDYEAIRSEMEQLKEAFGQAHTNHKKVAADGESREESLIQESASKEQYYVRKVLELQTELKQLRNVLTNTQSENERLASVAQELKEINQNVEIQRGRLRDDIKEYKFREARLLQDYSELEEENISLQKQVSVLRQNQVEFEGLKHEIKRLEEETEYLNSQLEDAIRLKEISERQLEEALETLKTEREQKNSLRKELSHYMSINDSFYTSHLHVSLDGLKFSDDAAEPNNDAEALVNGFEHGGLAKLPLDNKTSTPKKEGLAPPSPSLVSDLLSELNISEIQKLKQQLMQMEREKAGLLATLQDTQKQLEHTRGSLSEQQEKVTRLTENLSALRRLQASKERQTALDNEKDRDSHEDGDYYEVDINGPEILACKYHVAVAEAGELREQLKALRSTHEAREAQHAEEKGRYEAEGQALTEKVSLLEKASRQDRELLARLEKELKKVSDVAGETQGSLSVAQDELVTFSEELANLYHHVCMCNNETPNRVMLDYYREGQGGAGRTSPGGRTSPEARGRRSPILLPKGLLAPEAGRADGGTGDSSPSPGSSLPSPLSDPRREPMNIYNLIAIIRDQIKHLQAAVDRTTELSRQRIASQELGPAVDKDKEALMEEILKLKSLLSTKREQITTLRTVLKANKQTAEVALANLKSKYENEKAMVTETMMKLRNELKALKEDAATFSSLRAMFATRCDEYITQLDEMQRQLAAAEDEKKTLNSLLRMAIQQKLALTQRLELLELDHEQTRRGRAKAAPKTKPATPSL
UniProt Q9NWV8, whole entry, looked up: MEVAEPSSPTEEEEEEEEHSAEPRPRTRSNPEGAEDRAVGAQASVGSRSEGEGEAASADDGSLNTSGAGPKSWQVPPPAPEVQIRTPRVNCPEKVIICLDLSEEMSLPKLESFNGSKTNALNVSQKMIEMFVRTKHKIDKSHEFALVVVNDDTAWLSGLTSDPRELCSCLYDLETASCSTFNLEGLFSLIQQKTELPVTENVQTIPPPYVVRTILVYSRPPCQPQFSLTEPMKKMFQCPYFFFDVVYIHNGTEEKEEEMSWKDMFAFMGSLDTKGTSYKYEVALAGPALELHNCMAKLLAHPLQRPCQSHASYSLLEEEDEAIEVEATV
UniProt Q07812, whole entry, looked up: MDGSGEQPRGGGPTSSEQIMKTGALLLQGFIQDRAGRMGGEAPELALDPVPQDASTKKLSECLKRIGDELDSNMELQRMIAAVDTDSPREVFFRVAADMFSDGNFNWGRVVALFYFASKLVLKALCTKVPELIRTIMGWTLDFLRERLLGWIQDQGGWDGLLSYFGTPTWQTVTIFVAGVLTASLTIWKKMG
UniProt Q9H3K6: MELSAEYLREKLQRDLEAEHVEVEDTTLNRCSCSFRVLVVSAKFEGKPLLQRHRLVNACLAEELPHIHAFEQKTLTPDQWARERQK
UniProt Q13490, whole entry, looked up: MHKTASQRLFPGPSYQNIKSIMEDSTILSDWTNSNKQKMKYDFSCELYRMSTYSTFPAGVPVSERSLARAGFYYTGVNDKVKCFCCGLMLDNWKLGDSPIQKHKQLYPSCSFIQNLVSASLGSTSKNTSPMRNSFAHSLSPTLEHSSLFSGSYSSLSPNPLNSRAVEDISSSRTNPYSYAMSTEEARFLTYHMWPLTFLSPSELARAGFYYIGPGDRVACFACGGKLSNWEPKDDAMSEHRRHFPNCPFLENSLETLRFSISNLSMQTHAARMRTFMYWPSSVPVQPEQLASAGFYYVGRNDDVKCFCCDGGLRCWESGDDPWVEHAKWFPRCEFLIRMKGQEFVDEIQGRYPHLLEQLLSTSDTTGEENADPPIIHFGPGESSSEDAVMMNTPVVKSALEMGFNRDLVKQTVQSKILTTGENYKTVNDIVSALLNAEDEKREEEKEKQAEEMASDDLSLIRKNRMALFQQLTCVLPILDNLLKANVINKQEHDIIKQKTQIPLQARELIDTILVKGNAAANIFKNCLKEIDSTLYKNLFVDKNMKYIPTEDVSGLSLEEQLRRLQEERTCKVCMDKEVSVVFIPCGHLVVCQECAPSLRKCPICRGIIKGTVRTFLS
UniProt O15155: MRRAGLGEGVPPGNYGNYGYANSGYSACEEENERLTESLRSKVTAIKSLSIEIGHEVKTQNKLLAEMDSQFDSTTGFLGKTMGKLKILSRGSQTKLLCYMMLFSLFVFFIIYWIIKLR
UniProt O95861: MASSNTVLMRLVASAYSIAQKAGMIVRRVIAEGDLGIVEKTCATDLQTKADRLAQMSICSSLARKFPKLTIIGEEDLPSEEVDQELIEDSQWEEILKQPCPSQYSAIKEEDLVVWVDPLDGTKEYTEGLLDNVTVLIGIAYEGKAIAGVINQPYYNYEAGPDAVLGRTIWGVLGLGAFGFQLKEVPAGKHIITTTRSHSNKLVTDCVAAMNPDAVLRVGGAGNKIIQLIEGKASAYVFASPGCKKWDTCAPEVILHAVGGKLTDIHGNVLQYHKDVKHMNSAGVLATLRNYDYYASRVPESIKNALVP
UniProt O94766: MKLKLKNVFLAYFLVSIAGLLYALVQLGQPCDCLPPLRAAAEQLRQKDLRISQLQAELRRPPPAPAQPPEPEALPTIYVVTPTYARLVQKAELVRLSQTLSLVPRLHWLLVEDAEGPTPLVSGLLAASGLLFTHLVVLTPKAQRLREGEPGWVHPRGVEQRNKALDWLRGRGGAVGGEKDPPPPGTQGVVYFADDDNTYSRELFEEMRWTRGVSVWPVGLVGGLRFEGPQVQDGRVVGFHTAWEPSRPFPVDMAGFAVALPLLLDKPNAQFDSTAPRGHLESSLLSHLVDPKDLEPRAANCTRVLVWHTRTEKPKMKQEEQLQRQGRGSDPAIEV

What follows are targets tested with Cc1ccc(-n2nc(C(C)(C)C)cc2NC(=O)Nc2ccc(OCCN3CCOCC3)c3ccccc23)cc1 [doramapimod] (assay: log2 fold change, soluble protein after heating vs DMSO (PISA); higher = thermal stabilisation; K562 cells, 10 uM, 30 min; active = over 0.2 and 3.5 SD of the protein, either way, in both replicates (recomputed)).
Procedure, shortened: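 Values are thermal stability changes relative to control samples and are taken from duplicates. They are stated as log2 fold changes. Before quantification by TMTpro 16plex LC-MS/MS with equalised channel sums, K562 cells at 2×10^6 cells/mL were treated with 10 μM compound for 30 min, heated in aliquots for 3 min across 48°C-58°C, pooled, extracted in PBS with 0.5% NP-40 at 4°C, and centrifuged at 21,000xg for 90 min to give the soluble supernatant.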
BRAT1 (UniProt Q6PJG6) was tested, and the log2 fold change was inactive: -0.002. For BLOC1S4 (UniProt Q9NUP1), the log2 fold change was inactive: 0.005. In the case of ATXN2 (UniProt Q99700), the log2 fold change is reported as inactive: 0.009. BCL2L1 (UniProt Q07817) was tested, and the log2 fold change was inactive: 0.014. For ATRIP (UniProt Q8WXE1), the log2 fold change was inactive: 0.063. B4GALT3 (UniProt O60512) was tested, and the log2 fold change was inactive: 0.06. With BLVRA (UniProt P53004) the log2 fold change was inactive: 0.018. In the case of BICD2 isoform 2 (UniProt Q8TD16), the log2 fold change is reported as inactive: 0.006. BABAM1 (UniProt Q9NWV8) was tested, and the log2 fold change was inactive: -0.046. For BAX isoform 2 (UniProt Q07812), the log2 fold change was inactive: 0.016. In the case of BCKDHA (UniProt P12694), the log2 fold change is reported as inactive: 0.031. With BNIP2 (UniProt J3KN59) the log2 fold change was inactive: -0.027. For BOLA2 (UniProt Q9H3K6), the log2 fold change was inactive: -0.004. BIRC2 (UniProt Q13490) was tested, and the log2 fold change was inactive: -0.021. In the case of BAG3 (UniProt O95817), the log2 fold change is reported as inactive: -0.028. For BAHCC1 (UniProt Q9P281), the log2 fold change was inactive: 0.097. In the case of BMS1 (UniProt Q14692), the log2 fold change is reported as inactive: 0.229. With BCKDK (UniProt O14874) the log2 fold change was inactive: 0.036. For BET1 (UniProt O15155), the log2 fold change was inactive: 0.043. With BPNT1 (UniProt O95861) the log2 fold change was inactive: -0.022. BLOC1S5 (UniProt Q8TDH9) was tested, and the log2 fold change was inactive: -0.001. For B3GAT3 (UniProt O94766), the log2 fold change was inactive: 0.013. In the case of BIRC6 (UniProt Q9NR09), the log2 fold change is reported as inactive: 0.063.
